Measurements published in publication PMC12046049.

Columns and labels:
[1] = target: full-length human HSPB7 (isoform 2) (human); test: native MS; FLNCd24 alone, and mixed at a monomer ratio of 1:1 with HSPB7, HSPB7ΔN or HSPB7ACD; 200 mM ammonium acetate pH 6.9 (full-length HSPB7: 1 M); both purified
[2] = target: HSPB1ACD (α-crystallin domain of HSPB1) (human); test: native MS; ACD incubated with C-terminal peptide, peptide titration; 200 mM ammonium acetate pH 6.9; acetonitrile added to the source housing; fit with a Hill slope model for 1:1 binding; both purified
[3] = target: HSPB5ACD (α-crystallin domain of HSPB5) (human); test: as above

binding [1]	binding [2]	binding [3]	Binder
binds			FLNCd24 (domain 24 of filamin C, residues 2630-2724), wild type (domain or fragment, UniProt Q14315 2630-2724) GSKFSSDASKVVTRGPGLSQAFVGQKNSFTVDCSKAGTNMMMVGVHGPKTPCEEVYVKHMGNRVYNVTYTVKEKGDYILIVKWGDESVPGSPFKVKV
	no binding	no binding	TFRTEIKI [HSPB7 C-terminal peptide (residues 168-175, TFRTEIKI)]

Results are given in words; binding and its absence hold for the method and conditions named. For part of these data: A result given as binding can be weak or reduced; the word gives no strength.
